Laboratory results published in paper doi:10.1101/2025.03.07.642025, “The TONSL-MMS22L complex and FANCM form an interdependent complex on chromatin to counter replication stress” (bioRxiv, 2025).

Sequences of proteins named here, by UniProt entry; tags and fusion partners are left off.
UniProt Q8IYD8: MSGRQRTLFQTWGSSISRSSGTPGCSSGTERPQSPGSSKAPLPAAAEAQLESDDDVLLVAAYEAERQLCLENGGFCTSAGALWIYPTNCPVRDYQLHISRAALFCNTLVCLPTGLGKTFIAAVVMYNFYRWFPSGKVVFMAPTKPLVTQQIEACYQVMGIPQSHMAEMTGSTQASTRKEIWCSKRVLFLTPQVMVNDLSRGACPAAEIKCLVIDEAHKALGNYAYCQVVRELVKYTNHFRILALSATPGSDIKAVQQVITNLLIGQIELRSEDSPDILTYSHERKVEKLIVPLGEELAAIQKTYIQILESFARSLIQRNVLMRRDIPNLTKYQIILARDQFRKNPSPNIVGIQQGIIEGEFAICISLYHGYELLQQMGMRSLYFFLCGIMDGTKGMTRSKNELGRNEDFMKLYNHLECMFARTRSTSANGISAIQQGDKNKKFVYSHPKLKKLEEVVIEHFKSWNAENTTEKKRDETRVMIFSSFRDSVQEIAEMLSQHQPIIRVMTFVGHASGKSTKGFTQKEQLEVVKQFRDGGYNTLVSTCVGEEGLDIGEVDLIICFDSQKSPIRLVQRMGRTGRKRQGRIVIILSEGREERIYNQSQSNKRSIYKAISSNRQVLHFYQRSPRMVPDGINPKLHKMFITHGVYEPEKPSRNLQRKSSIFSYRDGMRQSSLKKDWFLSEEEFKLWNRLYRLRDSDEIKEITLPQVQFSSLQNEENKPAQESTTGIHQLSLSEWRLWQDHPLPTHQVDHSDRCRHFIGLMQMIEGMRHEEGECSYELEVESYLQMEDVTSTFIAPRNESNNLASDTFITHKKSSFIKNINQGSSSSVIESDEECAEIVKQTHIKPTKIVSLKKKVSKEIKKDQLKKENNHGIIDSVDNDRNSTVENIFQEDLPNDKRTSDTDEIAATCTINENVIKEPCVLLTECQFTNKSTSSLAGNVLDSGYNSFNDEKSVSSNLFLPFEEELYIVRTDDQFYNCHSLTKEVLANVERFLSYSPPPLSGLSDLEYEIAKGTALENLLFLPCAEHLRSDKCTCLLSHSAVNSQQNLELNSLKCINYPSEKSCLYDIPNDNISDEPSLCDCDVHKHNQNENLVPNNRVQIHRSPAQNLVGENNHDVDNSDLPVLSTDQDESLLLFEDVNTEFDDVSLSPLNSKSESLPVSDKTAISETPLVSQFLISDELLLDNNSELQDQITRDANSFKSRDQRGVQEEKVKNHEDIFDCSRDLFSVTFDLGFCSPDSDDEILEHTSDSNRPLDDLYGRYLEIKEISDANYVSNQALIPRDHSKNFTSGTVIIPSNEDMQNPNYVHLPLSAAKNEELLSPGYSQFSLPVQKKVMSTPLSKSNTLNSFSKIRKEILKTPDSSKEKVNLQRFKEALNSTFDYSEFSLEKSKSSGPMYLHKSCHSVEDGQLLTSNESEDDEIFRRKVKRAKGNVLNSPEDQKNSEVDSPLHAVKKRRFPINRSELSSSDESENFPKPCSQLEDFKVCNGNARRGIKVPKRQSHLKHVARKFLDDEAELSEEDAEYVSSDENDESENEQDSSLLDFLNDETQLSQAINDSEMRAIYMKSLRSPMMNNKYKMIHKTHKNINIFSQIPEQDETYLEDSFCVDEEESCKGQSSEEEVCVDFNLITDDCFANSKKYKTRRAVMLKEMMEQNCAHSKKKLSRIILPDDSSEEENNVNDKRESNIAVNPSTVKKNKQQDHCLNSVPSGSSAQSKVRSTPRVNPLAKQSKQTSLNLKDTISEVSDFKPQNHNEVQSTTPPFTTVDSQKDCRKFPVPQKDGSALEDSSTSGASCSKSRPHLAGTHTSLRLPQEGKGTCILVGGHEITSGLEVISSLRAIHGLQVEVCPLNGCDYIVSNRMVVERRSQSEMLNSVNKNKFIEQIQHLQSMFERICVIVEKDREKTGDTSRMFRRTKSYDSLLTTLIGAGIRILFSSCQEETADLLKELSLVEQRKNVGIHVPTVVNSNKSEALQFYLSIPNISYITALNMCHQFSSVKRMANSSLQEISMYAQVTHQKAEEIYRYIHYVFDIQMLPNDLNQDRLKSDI
UniProt P54132: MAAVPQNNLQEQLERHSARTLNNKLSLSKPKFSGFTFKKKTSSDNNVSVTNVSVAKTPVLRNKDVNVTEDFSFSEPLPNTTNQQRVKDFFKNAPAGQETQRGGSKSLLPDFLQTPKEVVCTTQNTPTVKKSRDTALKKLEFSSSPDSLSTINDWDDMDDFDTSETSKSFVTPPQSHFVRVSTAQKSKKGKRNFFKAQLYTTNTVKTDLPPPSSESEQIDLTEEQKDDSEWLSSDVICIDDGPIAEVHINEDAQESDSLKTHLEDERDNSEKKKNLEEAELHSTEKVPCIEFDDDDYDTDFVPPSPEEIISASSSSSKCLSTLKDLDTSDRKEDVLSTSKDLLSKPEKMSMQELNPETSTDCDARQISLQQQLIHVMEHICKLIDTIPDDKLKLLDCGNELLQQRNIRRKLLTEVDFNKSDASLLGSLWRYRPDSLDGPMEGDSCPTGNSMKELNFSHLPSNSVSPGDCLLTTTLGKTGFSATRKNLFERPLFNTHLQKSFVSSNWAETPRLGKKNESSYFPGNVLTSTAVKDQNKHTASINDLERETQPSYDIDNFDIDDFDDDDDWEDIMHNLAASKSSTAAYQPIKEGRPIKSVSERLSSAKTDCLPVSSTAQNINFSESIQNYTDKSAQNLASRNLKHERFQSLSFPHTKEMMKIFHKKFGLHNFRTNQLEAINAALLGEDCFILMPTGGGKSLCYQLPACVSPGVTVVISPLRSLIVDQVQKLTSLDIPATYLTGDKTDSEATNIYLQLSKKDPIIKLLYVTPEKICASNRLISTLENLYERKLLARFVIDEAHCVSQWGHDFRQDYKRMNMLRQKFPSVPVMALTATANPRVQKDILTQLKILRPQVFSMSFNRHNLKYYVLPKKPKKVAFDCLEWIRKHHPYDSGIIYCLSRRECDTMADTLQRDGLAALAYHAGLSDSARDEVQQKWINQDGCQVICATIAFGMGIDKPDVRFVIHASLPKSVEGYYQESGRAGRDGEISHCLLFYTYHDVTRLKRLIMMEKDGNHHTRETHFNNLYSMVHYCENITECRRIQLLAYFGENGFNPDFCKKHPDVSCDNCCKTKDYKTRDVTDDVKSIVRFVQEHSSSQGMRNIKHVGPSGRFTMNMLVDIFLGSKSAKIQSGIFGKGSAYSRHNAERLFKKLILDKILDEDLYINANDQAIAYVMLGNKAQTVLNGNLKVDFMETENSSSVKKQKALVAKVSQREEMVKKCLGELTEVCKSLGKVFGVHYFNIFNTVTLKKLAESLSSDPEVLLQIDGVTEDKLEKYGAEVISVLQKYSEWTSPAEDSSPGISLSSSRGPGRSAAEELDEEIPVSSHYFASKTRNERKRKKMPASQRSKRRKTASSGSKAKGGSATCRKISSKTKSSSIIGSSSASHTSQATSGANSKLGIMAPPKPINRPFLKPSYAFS
UniProt P12004: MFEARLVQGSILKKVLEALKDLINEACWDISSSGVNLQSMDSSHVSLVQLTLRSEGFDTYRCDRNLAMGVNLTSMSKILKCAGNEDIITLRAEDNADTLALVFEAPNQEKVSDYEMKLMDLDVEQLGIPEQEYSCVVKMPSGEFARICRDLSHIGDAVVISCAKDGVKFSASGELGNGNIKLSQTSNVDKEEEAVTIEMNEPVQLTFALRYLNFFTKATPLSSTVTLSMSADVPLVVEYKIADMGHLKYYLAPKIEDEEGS

Columns and labels:
Flag-MMS22L (human) = target: T1, Flag-MMS22L (human) (UniProt Q6ZRQ5); assay: affinity purification with mass spectrometry; Flag antibody IP of proteins released by benzonase from native chromatin of HU-treated HeLa cells stably expressing Flag-TONSL or Flag-MMS22L
T1 sequence: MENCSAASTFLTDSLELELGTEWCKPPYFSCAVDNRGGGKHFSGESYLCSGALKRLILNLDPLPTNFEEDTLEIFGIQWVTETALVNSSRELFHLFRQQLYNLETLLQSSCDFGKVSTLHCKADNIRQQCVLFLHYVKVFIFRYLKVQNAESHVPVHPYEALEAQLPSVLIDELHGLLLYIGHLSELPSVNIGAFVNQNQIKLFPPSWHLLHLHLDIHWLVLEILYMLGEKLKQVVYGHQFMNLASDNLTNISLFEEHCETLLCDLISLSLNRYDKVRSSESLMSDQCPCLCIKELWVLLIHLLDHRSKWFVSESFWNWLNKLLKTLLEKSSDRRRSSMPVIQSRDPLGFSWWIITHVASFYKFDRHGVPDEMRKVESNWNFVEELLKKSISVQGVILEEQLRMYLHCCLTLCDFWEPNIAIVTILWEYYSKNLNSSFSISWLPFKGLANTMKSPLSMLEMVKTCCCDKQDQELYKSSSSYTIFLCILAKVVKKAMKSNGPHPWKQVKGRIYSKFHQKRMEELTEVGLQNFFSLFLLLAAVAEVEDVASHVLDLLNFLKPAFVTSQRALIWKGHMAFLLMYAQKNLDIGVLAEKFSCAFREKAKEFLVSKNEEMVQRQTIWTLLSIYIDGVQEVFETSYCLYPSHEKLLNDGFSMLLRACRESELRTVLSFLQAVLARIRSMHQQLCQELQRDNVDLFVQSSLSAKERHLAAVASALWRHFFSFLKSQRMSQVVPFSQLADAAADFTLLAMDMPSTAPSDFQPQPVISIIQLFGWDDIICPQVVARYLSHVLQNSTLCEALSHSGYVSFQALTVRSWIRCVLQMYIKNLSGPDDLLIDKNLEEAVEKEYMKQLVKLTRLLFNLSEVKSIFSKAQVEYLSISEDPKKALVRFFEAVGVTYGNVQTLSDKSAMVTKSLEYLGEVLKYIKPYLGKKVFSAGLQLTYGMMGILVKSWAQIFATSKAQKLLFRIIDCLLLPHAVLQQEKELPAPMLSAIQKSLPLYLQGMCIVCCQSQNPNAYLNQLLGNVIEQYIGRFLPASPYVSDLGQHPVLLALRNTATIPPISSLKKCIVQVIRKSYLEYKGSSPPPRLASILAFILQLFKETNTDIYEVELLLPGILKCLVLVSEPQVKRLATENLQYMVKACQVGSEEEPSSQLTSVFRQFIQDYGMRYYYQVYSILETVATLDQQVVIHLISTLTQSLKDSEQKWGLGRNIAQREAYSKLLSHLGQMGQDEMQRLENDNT

Flag-TONSL (human) = target: T2, Flag-TONSL (human) (UniProt Q96HA7); assay: as above
T2 sequence: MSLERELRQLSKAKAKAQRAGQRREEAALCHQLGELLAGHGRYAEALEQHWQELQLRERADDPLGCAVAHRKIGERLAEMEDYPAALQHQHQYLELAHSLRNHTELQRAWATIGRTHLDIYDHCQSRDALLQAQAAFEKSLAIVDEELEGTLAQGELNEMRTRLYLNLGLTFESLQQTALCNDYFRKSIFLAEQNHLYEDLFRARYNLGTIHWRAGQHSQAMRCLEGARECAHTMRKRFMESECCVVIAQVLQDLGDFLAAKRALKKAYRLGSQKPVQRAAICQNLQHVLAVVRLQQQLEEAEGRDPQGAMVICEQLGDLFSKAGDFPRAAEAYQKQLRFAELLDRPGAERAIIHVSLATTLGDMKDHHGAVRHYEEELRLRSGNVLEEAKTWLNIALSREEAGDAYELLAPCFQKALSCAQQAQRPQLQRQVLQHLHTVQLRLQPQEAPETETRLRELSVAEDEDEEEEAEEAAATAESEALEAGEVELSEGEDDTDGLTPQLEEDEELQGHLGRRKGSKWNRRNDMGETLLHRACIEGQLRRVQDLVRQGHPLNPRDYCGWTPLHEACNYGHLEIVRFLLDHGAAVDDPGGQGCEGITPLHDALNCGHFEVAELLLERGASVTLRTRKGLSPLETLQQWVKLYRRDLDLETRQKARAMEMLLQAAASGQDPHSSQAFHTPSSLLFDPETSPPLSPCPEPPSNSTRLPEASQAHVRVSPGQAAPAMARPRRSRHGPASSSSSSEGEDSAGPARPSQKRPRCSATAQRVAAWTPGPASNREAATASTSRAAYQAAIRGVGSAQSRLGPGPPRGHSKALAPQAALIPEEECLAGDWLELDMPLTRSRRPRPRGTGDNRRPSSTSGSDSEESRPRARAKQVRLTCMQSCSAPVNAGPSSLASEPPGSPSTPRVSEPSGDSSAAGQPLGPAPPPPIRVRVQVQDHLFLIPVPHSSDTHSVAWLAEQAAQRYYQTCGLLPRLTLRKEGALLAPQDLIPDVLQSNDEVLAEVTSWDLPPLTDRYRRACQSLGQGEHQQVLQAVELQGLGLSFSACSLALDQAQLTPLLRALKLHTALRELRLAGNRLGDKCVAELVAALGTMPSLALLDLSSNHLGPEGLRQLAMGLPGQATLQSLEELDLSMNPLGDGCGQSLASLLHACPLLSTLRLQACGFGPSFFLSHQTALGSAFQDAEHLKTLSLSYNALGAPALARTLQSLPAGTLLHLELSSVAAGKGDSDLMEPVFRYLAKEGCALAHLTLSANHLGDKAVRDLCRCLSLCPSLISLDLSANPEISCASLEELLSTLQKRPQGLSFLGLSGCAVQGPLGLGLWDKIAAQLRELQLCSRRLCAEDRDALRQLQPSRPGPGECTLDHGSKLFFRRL

[1] = target: Flag-tagged FANCM (human) (UniProt Q8IYD8); assay: affinity purification with mass spectrometry; Flag antibody purification from HU-treated HEK293 cells stably expressing Flag-FANCM
[2] = target: FANCM (human (endogenous in HeLa)) (UniProt Q8IYD8); assay: affinity purification with mass spectrometry; FANCM antibody IP from pooled Superose 6 fractions of chromatin proteins released by micrococcal nuclease and DNase I from HU-treated (2 mM, 24 h) HeLa cells; IP buffer 20 mM HEPES pH 7.9, 200 mM NaCl, 5 mM MgCl2, 0.1% Tween 20

Q: Which binding (Flag-MMS22L (human)) does the source give for BLM (from UniProt P54132 1-1417) here?
A: binds

Q: What about the binding (Flag-TONSL (human)) of the same molecule?
A: binds

Q: What does the source list for PCNA (from UniProt P12004 1-261)?
A: binding (Flag-MMS22L (human)): binds; binding (Flag-TONSL (human)): binds

B1: TONSL (natural protein, human (endogenous in HeLa), UniProt Q96HA7 1-1378, looked up)
chain: T2 sequence
notes: TONSL, human, endogenous in HeLa cells; source: endogenous, HeLa
Q: With B1 as the molecule, how does the binding [1] read?
A: binds

Q: What about the binding [2] of the same molecule?
A: binds

B2: MMS22L (natural protein, human (endogenous in HeLa), UniProt Q6ZRQ5 1-1243, looked up)
chain: T1 sequence
notes: MMS22L, human, endogenous in HeLa cells; source: endogenous, HeLa
Q: How did the binding [1] turn out when B2 was run?
A: binds

Q: And the binding [2]?
A: binds

No constants are given. Whether binding was seen depends on the method and setting. Binding seen in cells or lysates may run through a third protein. These calls come from enrichment with a bait or labelling near it, and not all partners need be listed. For some assays here: Sequences can lack the tags named with a protein.
